The campaign covered roughly 320,000 compounds. About 740 (0.23%) were called active. Inconclusive results, whose numbers are uncertain, are shown with a selection of clear calls. Calls follow the shape of the dose curve; as a rule, active = well fitted activation curve with a large enough effect; inconclusive = small, poorly fitted or top-dose-only effect; inactive = no such curve, though single readings can be large or run the other way. Potencies of inconclusive entries are doubtful fits and often do not repeat. Some compounds were tested as several samples or in several runs, with calls that do not always agree.
Assay: qHTS Assay for Small Molecule Inhibitors of Mitochondrial Division or Activators of Mitochondrial Fusion; also: nearly all actives have a fitted effect of over 45% in size
Conditions: S. cerevisiae fusion-defective mutant growth rescue, CellTiterGlo 48 h; series mostly up to 46.1 µM
How it was run: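 S. cerevisiae fusion-defective temperature-sensitive mutants (e.g. fzo1-1, mgm1-5) grown 48 h at 37C in YPEG (ethanol/glycerol non-fermentable) medium with 23 nl compound per well; growth rescue read as CellTiterGlo luminescence.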
Potency is read from the fitted curve at half-maximal effect.

Compound	Potency
Cc1nc(-c2ccc3c(c2)OCCO3)cs1	inactive
Cc1ccc2nc(NC(=O)CCn3c(=O)sc4ccccc43)sc2c1	inconclusive: 22.4 µM [activator, single point]
CCCc1cc(C(=O)OC)c(NC(=O)c2cc(C)on2)s1	inconclusive: 12.6 µM [activator, partial curve]
Cc1cc2oc(=O)cc(-c3cc4ccccc4o3)c2cc1O	inconclusive: 2.51 µM [activator, full curve]
CC1(C)Cc2c(c(-c3ccco3)nc3sc4c(NCCN5CCOCC5)ncnc4c23)CO1	inactive
O=C(Nc1nnc(-c2cccnc2)o1)c1cccc(Cl)c1	inconclusive: 3.16 µM [activator, single point]
CC(C)(C)C(=O)Nc1ccc(C(=O)N/N=C/c2ccccc2OC(=O)c2ccc(Cl)cc2)cc1	inactive
O=C(CSc1ccc(Cl)cc1)N1CCN(c2ncc(C(F)(F)F)cc2Cl)CC1	inconclusive: 17.8 µM [activator, single point]
COC(=O)c1ccccc1NC(=O)c1cn(-c2ccc(C)c(C)c2)c(=O)c2ccccc12	inconclusive: 8.91 µM [activator, partial curve]
COc1cc2c(cc1OC)C(c1ccccc1Cl)N(C)CC2 (configuration not stated)	inactive
COc1c(C(=O)Nc2ccc(Cc3ccncc3)cc2)ccc2ccccc12	inconclusive: 28.2 µM [activator, single point]
N#CCc1ccccc1C(=O)OCC(=O)N(Cc1ccccc1)Cc1ccccc1	inconclusive: 15.8 µM [activator, single point]
Cc1c(NC2=C(Cl)C(=O)N(c3ccccc3)C2=O)c(=O)n(-c2ccccc2)n1C	inactive
O=C(O)C/C(=C\c1cccc(NC(=O)c2ccccc2Cl)c1)c1nc2ccccc2s1	inconclusive: 22.4 µM [activator, partial curve]
O=C(COC(=O)c1cccc(Cl)c1Cl)NC1CCCC1	inactive
COC(=O)c1cc2c(ccn2-c2ccc(F)cc2)n1Cc1ccc(C#N)cc1	inconclusive: 10 µM [activator, partial curve]
COc1ccc(C(=O)NCCSc2ccccc2)cc1	inactive
O=[N+]([O-])c1ccc(N2CCN(c3ccc(O)cc3)CC2)c(Cl)c1	inconclusive: 14.1 µM [activator, partial curve]
CCn1c(-c2ccc(C(C)(C)C)cc2)n[nH]c1=S	inactive
CCOC(=O)COc1ccc(C(=O)NC2CCCCC2)cc1	inconclusive: 6.31 µM [activator, single point]
Cc1cccc(C(=O)N2CCc3cc(-c4nc(NC(=O)CN5CCCC5)sc4C)ccc32)c1	inactive
CC(C)(C)OC(=O)CC1(C#N)c2ccccc2C(Br)=CN1C(=O)c1ccccc1 (configuration not stated)	inconclusive: 15.8 µM [activator, single point]
CS/C(=N\S(=O)(=O)c1cccs1)Nc1cccc(Cl)c1C	inconclusive: 35.5 µM [activator, single point]
O=c1c2cc(F)ccc2[nH]c(=S)n1Cc1ccc(F)cc1	inconclusive: 31.6 µM [activator, single point]

Reprinted at random: 3 compounds from above.
Compound	Potency
O=c1c2cc(F)ccc2[nH]c(=S)n1Cc1ccc(F)cc1	inconclusive: 31.6 µM [activator, single point]
COc1c(C(=O)Nc2ccc(Cc3ccncc3)cc2)ccc2ccccc12	inconclusive: 28.2 µM [activator, single point]
COc1cc2c(cc1OC)C(c1ccccc1Cl)N(C)CC2 (configuration not stated)	inactive

(listing goes on)

Compound	Potency
COc1ccc(/C=C/C(=O)N2CCN(c3ccccc3)CC2)cc1S(=O)(=O)N1CCOCC1	inactive
O=C(Nc1cccc(-c2nc3ccccc3s2)c1)C1=COCCO1	inconclusive: 25.1 µM [activator, single point]
COC(=O)c1cccc(Nc2c3c(nc4ccccc24)CCC3)c1	inactive
CCOc1ccc(CCNC(=O)CCn2cccc2)cc1OCC	inactive
CC12CCC(C/C1=N/OC(=O)c1cccc([N+](=O)[O-])c1)C2(C)C (configuration not stated)	inactive
O=C(Nc1ccc(C#Cc2ccccc2)cc1)C1CC1	inconclusive: 3.55 µM [activator, full curve, poor fit]
COc1ccc(-n2nnc3c(SCC(=O)Nc4ccc5c(c4)OCCO5)ncnc32)cc1	inactive
CC1Oc2ccccc2C=C1/C=N/NC(=O)c1ccccc1 (configuration not stated)	inconclusive: 35.5 µM [activator, single point]
COc1ccc(C/C(N)=N/OC(=O)CCc2ccccc2)cc1	inactive
O=C(COc1ccc(Cl)cc1Cl)N(c1ccccn1)C1CCCCC1	inconclusive: 15.8 µM [activator, single point]
CC(C)[C@H](NS(=O)(=O)c1ccc2c(c1)OCCO2)C(=O)OCC(=O)Nc1cc(Cl)ccc1Cl	inconclusive: 22.4 µM [activator, single point]
Cc1ccc(NNC(=O)C(O)(c2cccc(C(F)(F)F)c2)c2cccc(C(F)(F)F)c2)cc1	inactive
Cc1cccc(C(=O)N2CCc3cc(-c4nc(NC(=O)Cn5nnc6ccccc6c5=O)sc4C)ccc32)c1	inactive
COc1ccc(/C=N/n2cnc3c([nH]c4ccccc43)c2=O)cc1COc1ccccn1	inactive
CN(CC(=O)Nc1cccc(F)c1)C(=O)c1cn(-c2ccccc2)nc1-c1ccc(F)cc1	inconclusive: 20 µM [activator, single point]
Cc1ccc2nc(SCc3nc4ccccc4c(=O)[nH]3)[nH]c2c1	inconclusive: 28.2 µM [activator, single point]
CCOc1ccc(C(CC(=O)O)NC(=O)COc2ccccc2)cc1OC (configuration not stated)	inactive
Cc1ccc(NC(=O)c2ccc3ncsc3c2)cc1S(=O)(=O)N(C)C	inactive
O=C1CCc2cc(S(=O)(=O)NC3CCCCC3)ccc2N1	inactive
Cc1cccc(CCNC(=O)c2cccc3c2C(=O)N(C2CCCCC2)C3)c1	inconclusive: 35.5 µM [activator, single point]
COc1ccc(OC)c(NC(=O)c2cnc(Nc3ccccc3OC)c3ccccc23)c1	inconclusive: 12.6 µM [activator, partial curve]
O=C(c1ccc(OCCN2CCCCC2)cc1)c1c(-c2ccc(O)cc2)sc2cc(O)ccc12	active: 18.4 µM
ClC(Cl)(Cl)c1nc2ccccc2n2nncc12	active: 12.6 µM
N/C(=N\OC(=O)c1cccs1)C1(c2ccc(Cl)cc2Cl)CC1	inconclusive: 14.1 µM [activator, partial curve]

Compound	Potency
Cc1ccc(NC(=O)c2cc3ccccc3oc2=N)cc1	inactive
COc1cccc(-c2sc3ccc(OC)cc3c2C#CC(C)(C)O)c1	inconclusive: 35.5 µM [activator, single point]
COC(=O)[C@@]1(Cc2ccc(OC)cc2)[C@H]2c3cc(C(=O)N(C)C)n(Cc4ccc(OC(F)(F)F)cc4)c3C[C@H]2CN1C(=O)c1ccccc1	inactive
COc1ccc(/C=C/c2nnc(NC(=O)COc3cccc(C)c3)s2)cc1	inactive
COc1ccc(-n2c(COc3ccc(Cl)cc3)nnc2SCc2ccc(C#N)cc2)cc1	inconclusive: 14.1 µM [activator, single point]
COc1ccccc1/C=C/C=N/n1c(-c2cc(-c3ccccc3)n[nH]2)n[nH]c1=S	inactive
O=C(Nc1cccc(-c2cc3ccccc3oc2=O)c1)c1ccc(Br)o1	inconclusive: 12.6 µM [activator, partial curve]
Nc1nc(NCc2ccco2)nc(N2CCCCC2)c1[N+](=O)[O-]	inconclusive: 4.47 µM [activator, partial curve]
COc1ccc(CNC(=O)CN2C(=O)C(c3ccccc3)Oc3cccnc32)cc1 (configuration not stated)	inactive
Cc1ccc(OCCSc2ncccn2)c(C)c1	inconclusive: 3.16 µM [activator, partial curve]
CCCCNC(=S)N/N=C/C1=CCC2CC1C2(C)C (configuration not stated)	inconclusive: 35.5 µM [activator, single point]
CCOC(=O)C1=C(C)NC(C)=C(C(=O)OCC)C1c1cccc(C)n1	inactive
O=C(c1cn(-c2ccccc2)nc1-c1cccc(Br)c1)N1CCOCC1	inconclusive: 17.8 µM [activator, partial curve]
Cc1nc(NC(=O)CSc2nnc(-c3ccc4c(c3)OCO4)o2)c(Cl)cc1Cl	inconclusive: 17.8 µM [activator, single point]
CN(C)C(=O)c1cc(C(=O)c2ccc(C(F)(F)F)cc2F)c[nH]1	inconclusive: 35.5 µM [activator, single point]
COC(=O)c1ccccc1NC(=O)c1cnn2c(C(F)F)cc(C3CC3)nc12	inconclusive: 17.8 µM [activator, partial curve]
COc1ccc(C(=O)NC(C(=O)OCC(=O)Nc2sccc2C(N)=O)C(C)C)cc1 (configuration not stated)	inconclusive: 35.5 µM [activator, single point]
COc1cccc(/C=C/C(=O)NNC(=O)c2ccco2)c1OC	inactive
Cc1cc(/C=N\NC(=O)COc2cccc3cccnc23)c(C)n1-c1ccccc1	inconclusive: 35.5 µM [activator, single point]
Cc1ccccc1NC(=O)c1ccc(-c2ccc(Cl)cc2Cl)o1	inconclusive: 14.1 µM [activator, partial curve]
Cc1cc(N2C(=O)C(O)=C(C(=O)c3cc4ccccc4o3)C2c2ccc(Br)cc2)no1 (configuration not stated)	inconclusive: 0.316 µM [activator, full curve, poor fit]
O=C(Nc1ccccc1N1CCCC1)c1ccc2ccccc2c1	inconclusive: 12.6 µM [activator, partial curve]
Cc1ccc(C2(c3noc(CN(C)Cc4cccnc4)n3)CCCC2)cc1	active: 28.2 µM
O=S(=O)(Nc1ccc(Cc2ccncc2)cc1)c1ccc(Cl)c(Cl)c1	inconclusive: 31.6 µM [activator, single point]

— PubChem BioAssay AID485298 (National Center for Advancing Translational Sciences (NCATS), 2010)
